These are yes or no findings as the source states them, for the method shown. Some binding calls cover weakened binding; strength is not graded here.
Target: bacteriophage MS2 coat protein (bacteriophage MS2) (UniProt P03612)
Test: cryo-EM structure; single particle cryo-EM of purified MS2 virions (coat protein, A-protein and RNA genome); icosahedral reconstruction at 4.1 Å and asymmetric reconstruction at 8.7 Å; both purified

The chains behind the UniProt entries cited, without tags or fusion partners.
UniProt P03612: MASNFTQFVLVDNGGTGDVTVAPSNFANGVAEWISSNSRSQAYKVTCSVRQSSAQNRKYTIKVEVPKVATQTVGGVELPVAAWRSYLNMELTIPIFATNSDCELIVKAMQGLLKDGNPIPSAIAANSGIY

B1: bacteriophage MS2 maturation protein (A-protein) (protein, UniProt P03610 1-393)
chain: MRAFSTLDRENETFVPSVRVYADGETEDNSFSLKYRSNWTPGRFNSTGAKTKQWHYPSPYSRGALSVTSIDQGAYKRSGSSWGRPYEEKAGFGFSLDARSCYSLFPVSQNLTYIEVPQNVANRASTEVLQKVTQGNFNLGVALAEARSTASQLATQTIALVKAYTAARRGNWRQALRYLALNEDRKFRSKHVAGRWLELQFGWLPLMSDIQGAYEMLTKVHLQEFLPMRAVRQVGTNIKLDGRLSYPAANFQTTCNISRRIVIWFYINDARLAWLSSLGILNPLGIVWEKVPFSFVVDWLLPVGNMLEGLTAPVGCSYMSGTVTDVITGESIISVDAPYGWTVERQGTAKAQISAMHRGVQSVWPTTGAYVKSPFSMVHTLDALALIRQRLSR
With B1 the binding was “binds”.
